Results taken from PMC10140581, “Development and evaluation of novel artemisinin-isatin hybrids with potential anti-leukemic cytotoxicity” (Frontiers in Oncology, 2023).

Assays:
[1] = system: CCRF-CEM human acute lymphoblastic leukemia cell line; assay: MTT antiproliferative assay, CCRF-CEM; type: cell-based
Experimental: (§1) The antiproliferative activity and cytotoxicity of ester tethered ART-isatin hybrids 7a-u against human myeloid leukemia cell lines (K562 CM-0130 purchased from Procell and K562/ADR AW-CELLS-H0187 purchased from AnWei-sci), human acute lymphoblastic leukemia cell line (CCRF-CEM CL-0058 purchased from Procell) as well as cytotoxicity towards normal human peripheral blood mononuclear cells (PBMCs 230470, purchased from Mingzhoubio) were assessed by 3-(4,5-dimethylthiazol-2-yl)-2,5-diphenyltetrazolium bromide (MTT) assay. The antiproliferative activity was expressed by half maximal inhibitory concentration (IC50) values, which were presented in Table 2 .
(§2) K562 CM-0130 (purchased from Procell), K562/ADR AW-CELLS-H0187 (purchased from AnWei-sci) and CCRF-CEM CL-0058 (purchased from Procell) leukemia cell lines (2×10^3) were plated in each well of a 96-well plate and were allowed to adhere and spread for 24 h at 37°C in 5% CO2 for attachment. Medium in wells was replaced after 24 h with fresh medium containing the tested compounds in DMSO (1% v/v) and incubated for 72 h. The ART-isatin hybrids 7a-u along with the positive control Adriamycin and Vorinostat were added to a final concentration of 100 µM, and the cells were cultured for 24 h at 37°C. […]

[2] = system: K562 human myeloid leukemia cell line; assay: MTT antiproliferative assay, K562; type: cell-based
Experimental: as §1, §2

## O=C(CCCCCCC(=O)Nc1ccccc1)NO [Vorinostat, reference compound]
[1]
  IC50: 0.46 µM
[2]
  IC50: 3.83 µM
